# In patent US12404241B2 (Celgene Corporation, priority 2018, dated 2025):
# Chains of the proteins cited; added tags and fusions are not shown.
# UniProt P10275, whole entry: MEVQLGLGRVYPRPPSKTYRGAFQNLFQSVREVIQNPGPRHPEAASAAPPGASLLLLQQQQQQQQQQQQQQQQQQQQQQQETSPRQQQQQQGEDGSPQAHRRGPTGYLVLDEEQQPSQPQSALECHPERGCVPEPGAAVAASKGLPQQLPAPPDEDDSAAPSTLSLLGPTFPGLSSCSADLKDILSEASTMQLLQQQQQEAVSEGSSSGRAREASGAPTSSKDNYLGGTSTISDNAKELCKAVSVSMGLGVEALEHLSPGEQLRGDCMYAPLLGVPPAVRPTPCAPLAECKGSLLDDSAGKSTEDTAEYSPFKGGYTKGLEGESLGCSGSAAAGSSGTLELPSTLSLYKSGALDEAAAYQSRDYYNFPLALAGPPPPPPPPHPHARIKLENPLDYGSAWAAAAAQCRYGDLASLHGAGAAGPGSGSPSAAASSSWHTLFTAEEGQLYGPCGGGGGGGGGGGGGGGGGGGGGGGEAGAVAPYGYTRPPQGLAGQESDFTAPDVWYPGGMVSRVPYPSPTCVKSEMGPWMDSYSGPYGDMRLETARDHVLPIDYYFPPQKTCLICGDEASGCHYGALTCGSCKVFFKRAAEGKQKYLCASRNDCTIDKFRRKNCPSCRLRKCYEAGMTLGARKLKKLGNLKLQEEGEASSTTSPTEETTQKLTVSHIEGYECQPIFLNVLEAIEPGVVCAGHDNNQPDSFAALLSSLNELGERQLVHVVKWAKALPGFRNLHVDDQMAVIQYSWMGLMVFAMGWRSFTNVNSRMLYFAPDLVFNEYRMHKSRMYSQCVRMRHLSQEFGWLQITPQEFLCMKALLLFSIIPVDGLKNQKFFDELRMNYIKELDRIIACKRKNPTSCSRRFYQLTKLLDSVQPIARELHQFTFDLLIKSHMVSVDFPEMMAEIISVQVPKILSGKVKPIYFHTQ
# The structures given here were assigned with low confidence; some may be wrong.
# Biological target: AR (Homo sapiens, UniProt P10275)
# Assay: VCAP AR Degradation Assay
# Method: VCAP AR Degradation Assay. Test compounds were pre-dispensed into a Corning CellBind 96-well clear bottom plate (Cat #3300) using an acoustic dispenser to make a 10-point concentration series at 1:3 dilution for each compound. The final top concentration of each compound was 5 μM. DMSO at a final concentration of 0.1% was used as a control. VCaP cells cultured in DMEM with 8% fetal bovine serum (FBS) were seeded at 50K cells per well in a 200 μL volume into the compound plate and incubated at 37° C. in a CO2 incubator for 24 h. The medium was carefully removed from the cells and the plate was placed on ice. […] AR levels in compound-treated wells were normalized to that of DMSO control and expressed as percent of control (PoC) (y). […]
# [formula] • A=YMin (lowest AR level normalized to DMSO control in response to compound treatment, as determined by curve fit) • B=YMax (maximum AR level as determined by curve fit) • C=EC50 • D=Hill Slope • x=compound concentration • EC50=the concentration of compound when y=(YMax−YMin)/2 • DC50=the concentration of the compound when y=50% of DMSO control (50% AR degradation) • y=AR protein level normalized to DMSO control
# The lowest measured AR level normalized to DMSO control in response to compound treatment, termed Y value, was used to characterize the compound-mediated AR degradation efficiency.
compound,measurement,setting,value
CCc1cc(N2C(=O)N(c3ccc(C#N)c(C(F)(F)F)c3)C(=O)C2(C)C)ccc1OCCN1CCN(CC(=O)Nc2cccc(NC3CCC(=O)NC3=O)c2)CC1 (centres unmarked),"Y (AR degradation efficiency, % of DMSO control)","class symbols *, **",** (25%<Y<=35%)
same,DC50,class symbols A-C,< 100 nM
